Patent US20160355583A1
Numbering of substitutions follows the chain as printed. No constants are given. Whether binding was seen depends on the method and setting. Some binding calls cover weakened binding; strength is not graded here.

The chains behind the UniProt entries cited, without tags or fusion partners. Where a name states a change or a piece, a line headed by the entry shows the natural chain unless it says otherwise.
UniProt Q9UK05: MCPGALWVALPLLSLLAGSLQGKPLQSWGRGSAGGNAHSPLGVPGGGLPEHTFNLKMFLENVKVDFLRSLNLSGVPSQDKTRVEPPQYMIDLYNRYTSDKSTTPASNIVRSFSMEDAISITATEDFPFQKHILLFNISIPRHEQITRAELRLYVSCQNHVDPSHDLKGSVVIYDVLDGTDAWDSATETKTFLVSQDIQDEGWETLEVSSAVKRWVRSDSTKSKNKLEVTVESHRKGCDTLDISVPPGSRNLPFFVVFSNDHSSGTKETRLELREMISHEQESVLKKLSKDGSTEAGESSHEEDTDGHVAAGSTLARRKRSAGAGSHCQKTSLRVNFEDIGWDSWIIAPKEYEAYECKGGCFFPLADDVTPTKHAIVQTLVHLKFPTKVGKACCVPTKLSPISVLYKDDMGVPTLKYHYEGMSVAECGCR

B1: Antibody BMP9-2: MOR022962 (antibody, human IgG1, kappa, V domains shown)
VH: QVQLLESGGGLVQPGGSLRLSCAASGFTFSSYAMSWVRQAPGKGLEWVSITLGTGHTHYADSVKGRFTISRDNSKNTLYLQMNSLRAEDTAVYYCARGSYIIWSALDYWGQGTLVTVSS
VL: DIQMTQSPSSLSASVGDRVTITCRASQDIRSYLNWYQQKPGKAPKLLIYDASNLQSGVPSRFSGSGSGTDFTLTISSLQPEDFATYYCQQSDTSPLTFGQGTKVEIKR
B2: Antibody BMP9-1: AM0100 (antibody, human IgG1, kappa, V domains shown)
VH: QVQLVQSGAEVKKPGASVKVSCKASGYTFTRYWMHWVRQAPGQGLEWMGEINPSQGGTNYNEKFKSRVTMTVDKSISTAYMELSRLRSDDTAVYYCAIGSNYGGLVYWGQGTLVTVSS
VL: EIVLTQSPATLSLSPGERATLSCRASESLDNYGISFMNWFQQKPGQAPRFLIYAASNQGSGIPARFSGSGSGTDFTLTISSLQPEDTAVYFCQQSKEVPRTFGGGTKVEIKR
B3: Antibody BMP9-5: AM1900 (antibody, human IgG1, kappa, V domains shown)
VH: B2 VH with S100A
VL: B2 VL
B4: Antibody BMP9-7: MOR023787 (antibody, human IgG1, lambda, V domains shown)
VH: QVQLVESGGGLVKPGGSLRLSCAASGFTFSSAWMSWVRQAPGKGLEWVGHIKSKTYGGTIDYAAPVKGRFTISRDDSKNTLYLQMNSLKTEDTAVYYCARVGGYYGYGYAFAYWGQGTLVTVSS
VL: SYELTQPLSVSVALGQTARITCSGDNIGDKYVSWYQQKPGQAPVLVIYDDNKRPSGIPERFSGSNSGNTATLTISRAQAGDEADYYCSSTASKSFNVFGGGTKLTVLG
B5: Antibody BMP9-4: AM4405 (antibody, human IgG1, kappa, V domains shown)
VH: QVQLVQSGAEVKKPGASVKVSCKASGYTFRSYNMHWVRQAPGQGLEWMGLIYPGNAVTSYSQKFKDRVTMTVDKSTSTAYMELSSLRSEDTAVYYCAKDDYFRGGSYAMDYWGQGTTVTVSS
VL: EIVLTQSPDFQSVTPKEKVTITCRASQSIRNNLHWYQQKPDQSPKLLIKYASQSIRGVPSRFSGSGSGTDFTLTINSLEAEDAATYYCQQSHSWPYTFGGGTKVEIKR
B6: Antibody BMP9-6: MOR022965 (antibody, human IgG1, kappa, V domains shown)
VH: QVQLVQSGAEVKKPGSSVKVSCKASGGTFSSYAISWVRQAPGQGLEWMGHIIPHWGHARYAQKFQGRVTITADESTSTAYMELSSLRSEDTAVYYCARSASSLPHFHWFDYWGQGTLVTVSS
VL: B1 VL with R30N, S31N, D50A, N53R, S91R, S94T, L96W
B7: Antibody BMP9-9: MOR023796 (antibody, human IgG1, lambda, V domains shown)
VH: QVQLVQSGAEVKKPGSSVKVSCKASGGTFSDYAIHWVRQAPGQGLEWMGGIIPFFGTAYYAQKFQGRVTITADESTSTAYMELSSLRSEDTAVYYCARRIVSDSVAVQYRHAFDPWGQGTLVTVSS
VL: QSVLTQPPSVSGAPGQRVTISCSGSSSNIGSNYVYWYQQLPGTAPKLLIYGNNNRPSGVPDRFSGSKSGTSASLAITGLQAEDEADYYCNAWDTKAYVWVFGGGTKLTVLG
B8: Antibody BMP9-3: MOR023795 (antibody, human IgG1, lambda, V domains shown)
VH: EVQLVQSGAEVKKPGESLKISCKGSGYSFTTYWIGWVRQMPGKGLEWMGIIYPEGSYTTYSPSFQGQVTISADKSISTAYLQWSSLKASDTAMYYCARGKRVDASSFDYWGQGTLVTVSS
VL: QSVLTQPPSVSGAPGQRVTISCSGSSSNIGDNYVSWYQQLPGTAPKLLIYRNNKRPSGVPDRFSGSKSGTSASLAITGLQAEDEADYYCSSTDKEHLVFGGGTKLTVLG
B9: Antibody BMP9-8: MOR023793 (antibody, human IgG1, kappa, V domains shown)
VH: QVQLVQSGAEVKKPGASVKVSCKASGYTFTSYYMNWVRQAPGQGLEWMGWINPVQGNTNYAQKFQGRVTMTRDTSISTAYMELSRLRSEDTAVYYCARNYFDVWGQGTLVTVSS
VL: DIQMTQSPSSLSASVGDRVTITCRASQTISNFLAWYQQKPGKAPKLLIYAASNLQSGVPSRFSGSGSGTDFTLTISSLQPEDFAVYYCQQLYAESITFGQGTKVEIKR

Molecular target: human BMP9 (BMP9/Growth Differentiation Factor 2 [Homo sapiens], NP_057288) (human) (UniProt Q9UK05)
Assay: ELISA binding assay

binding	Binder
binds	B1

Molecular target: human BMP9 (BMP9/Growth Differentiation Factor 2 [Homo sapiens], NP_057288) (human) (UniProt Q9UK05)
Assay: summary of Example 11

binding	Binder
binds	B2
binds	B3
binds	B4
binds	B5
binds	B1
binds	B6
binds	B7
binds	B8
binds	B9

Molecular target: human BMP9 (BMP9/Growth Differentiation Factor 2 [Homo sapiens], NP_057288) (human) (UniProt Q9UK05)
Assay: summary sentence of the description

binding	Binder
binds	B2
binds	B3
binds	B4
binds	B5
binds	B1
binds	B6
binds	B7
binds	B8
binds	B9
